Among the data in article PMC8278493 are binding values, retold here.

Results are given in words; binding and its absence hold for the method and conditions named. Sequences can lack the tags named with a protein.

The test concerns the target T1, S. cerevisiae GST-Tel2p (S. cerevisiae) (UniProt P53038).
T1 sequence: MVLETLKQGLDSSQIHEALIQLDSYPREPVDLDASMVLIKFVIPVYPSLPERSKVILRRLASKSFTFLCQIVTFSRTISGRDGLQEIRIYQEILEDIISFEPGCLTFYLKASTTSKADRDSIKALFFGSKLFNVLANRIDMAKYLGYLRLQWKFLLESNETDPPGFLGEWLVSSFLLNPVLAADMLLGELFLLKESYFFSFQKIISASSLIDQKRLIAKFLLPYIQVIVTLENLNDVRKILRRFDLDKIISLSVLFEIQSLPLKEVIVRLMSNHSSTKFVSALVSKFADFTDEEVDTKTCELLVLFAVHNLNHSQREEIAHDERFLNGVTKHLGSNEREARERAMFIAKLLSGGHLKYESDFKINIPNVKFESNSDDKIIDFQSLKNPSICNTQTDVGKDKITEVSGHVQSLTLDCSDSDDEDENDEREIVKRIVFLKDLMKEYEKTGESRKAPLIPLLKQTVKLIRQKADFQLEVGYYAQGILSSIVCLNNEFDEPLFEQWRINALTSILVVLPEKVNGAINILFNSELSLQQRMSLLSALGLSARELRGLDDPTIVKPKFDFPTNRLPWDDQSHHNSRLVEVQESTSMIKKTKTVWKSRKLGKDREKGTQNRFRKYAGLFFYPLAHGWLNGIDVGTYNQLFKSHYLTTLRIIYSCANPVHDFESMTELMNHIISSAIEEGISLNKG
Briefly: pull-down; GST beads hold yeast Tti1p-GST-Tti2p or GST-Tel2p; purified KmTOR-KmLst8; Coomassie-stained SDS-PAGE; both purified.

Take “Kluyveromyces marxianus TOR1-Lst8 complex”: the binding result was “no binding”.
